# In patent US20130090329A1, “Methods and Compositions for the Treatment of Psychotic Disorders Through the Identification of the Olanzapine Poor Response Predictor Genetic Signature” (SUREGENE, LLC, priority 2011, published 2013):
# For at least one compound, name, drawing or mass did not settle the structure.
# System: patients suffering from schizophrenia and related disorders
# Assay: CATIE study: percent change in total PANSS from baseline to LOCF, segmented by OPRP genetic signature status
# Type: in vivo, human
# Settings: Caucasian subjects
# From the text: Genotype and phenotype data for the CATIE trial were recently made available to qualified researchers through the NIMH Center for Collaborative Genetic Studies on Mental Disorders. The sample consisted of a total of 738 patients. For the present study, the inventors assigned OPRP status to 628 subjects, including 411 subjects of self-reported European ancestry and 217 subjects of self-reported African ancestry. Further details on the patient population are described in the study by Sullivan and coworkers (Sullivan et al., 2008). The CATIE SNP genotype data evaluated included a total of 492,900 SNPs located throughout the genome.
# The design of the CATIE study has been described in detail by others (Lieberman et al., 2005; Stroup et al., 2003). […]
# A total of 738 subjects consented to provide DNA for genetic study. […] For the genetic analyses presented herein, the inventors combined and evaluated drug response data for both Phase I and Phase IB of the CATIE study. […]
# Using the clinical data from the CAIE trial, the inventors derived several different metrics used for quantifying response in clinical trials of antipsychotic medications. The most commonly used psychometric instrument is the Positive and Negative Syndrome Scale (PANSS), a 30-item semi-quantitative instrument scored by clinical professionals (Kay et al., 1987). […]
compound,measurement,value
CN1CCN(C2=Nc3cc(Cl)ccc3Nc3ccccc32)CC1 [Clozapine],Response of OPRP positive group compared with OPRP negative group (percent change in PANSS),responded worse
